Reference: publication doi:10.1101/2025.11.17.688470
These are yes or no findings as the source states them, for the method shown. In cells and extracts the contact can be indirect. These calls come from enrichment with a bait or labelling near it, and not all partners need be listed.

Sequences of proteins named here, by UniProt entry; tags and fusion partners are left off.
UniProt Q07955: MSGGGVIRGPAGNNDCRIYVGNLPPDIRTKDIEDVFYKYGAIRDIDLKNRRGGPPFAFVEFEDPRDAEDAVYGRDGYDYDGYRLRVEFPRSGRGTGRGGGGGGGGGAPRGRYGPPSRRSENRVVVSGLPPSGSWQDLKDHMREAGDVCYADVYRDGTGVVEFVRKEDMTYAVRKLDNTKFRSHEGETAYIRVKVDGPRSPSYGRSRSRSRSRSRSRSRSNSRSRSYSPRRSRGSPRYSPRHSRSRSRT

B1: SRSF3 (protein, UniProt P84103 1-164)
chain: MHRDSCPLDCKVYVGNLGNNGNKTELERAFGYYGPLRSVWVARNPPGFAFVEFEDPRDAADAVRELDGRTLCGCRVRVELSNGEKRSRNRGPPPSWGRRPRDDYRRRSPPPRRRSPRRRSFSRSRSRSLSRDRRRERSLSRERNHKPSRSFSRSRSRSRSNERK
B2: SRSF7 (protein, UniProt Q16629 1-238)
chain: MSRYGRYGGETKVYVGNLGTGAGKGELERAFSYYGPLRTVWIARNPPGFAFVEFEDPRDAEDAVRGLDGKVICGSRVRVELSTGMPRRSRFDRPPARRPFDPNDRCYECGEKGHYAYDCHRYSRRRRSRSRSRSHSRSRGRRYSRSRSRSRGRRSRSASPRRSRSISLRRSRSASLRRSRSGSIKGSRYFQSPSRSRSRSRSISRPRSSRSKSRSPSPKRSRSPSGSPRRSASPERMD
B3: hnRNP A0 (protein, UniProt Q13151 1-305)
chain: MENSQLCKLFIGGLNVQTSESGLRGHFEAFGTLTDCVVVVNPQTKRSRCFGFVTYSNVEEADAAMAASPHAVDGNTVELKRAVSREDSARPGAHAKVKKLFVGGLKGDVAEGDLIEHFSQFGTVEKAEIIADKQSGKKRGFGFVYFQNHDAADKAAVVKFHPIQGHRVEVKKAVPKEDIYSGGGGGGSRSSRGGRGGRGRGGGRDQNGLSKGGGGGYNSYGGYGGGGGGGYNAYGGGGGGSSYGGSDYGNGFGGFGSYSQHQSSYGPMKSGGGGGGGGSSWGGRSNSGPYRGGYGGGGGYGGSSF
B4: hnRNP F, P52597 1-415 (protein)
chain: MMLGPEGGEGFVVKLRGLPWSCSVEDVQNFLSDCTIHDGAAGVHFIYTREGRQSGEAFVELGSEDDVKMALKKDRESMGHRYIEVFKSHRTEMDWVLKHSGPNSADSANDGFVRLRGLPFGCTKEEIVQFFSGLEIVPNGITLPVDPEGKITGEAFVQFASQELAEKALGKHKERIGHRYIEVFKSSQEEVRSYSDPPLKFMSVQRPGPYDRPGTARRYIGIVKQAGLERMRPGAYSTGYGGYEEYSGLSDGYGFTTDLFGRDLSYCLSGMYDHRYGDSEFTVQSTTGHCVHMRGLPYKATENDIYNFFSPLNPVRVHIEIGPDGRVTGEADVEFATHEEAVAAMSKDRANMQHRYIELFLNSTTGASNGAYSSQVMQGMGVSAAQATYSGLESQSVSGCYGAGYSGQNSMGGYD

How the values were obtained:
[1] = molecular target: GFP-SRSF1 wild type (Serine/arginine-rich splicing factor 1) (UniProt Q07955); assay: affinity purification with mass spectrometry
[2] = molecular target: GFP-SRSF1 wild type (Serine/arginine-rich splicing factor 1), Q07955; assay: affinity purification with mass spectrometry; details: remark: other sources report otherwise

Binder	binding [1]	binding [2]
B1	binds	–
B2	binds	–
B3	binds	–
B4	–	binds
